Experimental data taken from the supplement of paper PMC12282887.
Values are raw readings; no control value is given beside them.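 The top concentration was set near the MIC for antimicrobials, at 500 µM for most other compounds, and up to 1 mM for known inducer-like compounds. Deletion strains started from a tenfold smaller inoculum, and wells growing below 10% of the overall median were treated as non-growing.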

System: Escherichia coli BW25113
Test: growth (OD600 area under curve, 8 h) (OD600 x h); higher = more growth
Description: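 E. coli BW25113 reporter strains (wild type, ΔmarA, ΔsoxS, Δrob, each carrying one of 8 lux reporter plasmids) were grown in 40 µl LB in 384-well plates at 37°C, 800 rpm, with each compound at 4 two-fold concentrations, in biological duplicates. Growth is the baseline-corrected OD600 area under the curve over 8 h (0-8 h WT, 1-9 h deletion strains).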

O=C(N[C@H](CO)[C@H](O)c1ccc([N+](=O)[O-])cc1)C(Cl)Cl [Chloramphenicol]
growth
Conditions | reporter plasmid: EVC | reporter plasmid: acrABp | reporter plasmid: marRABp | reporter plasmid: micFp | reporter plasmid: ompFp | reporter plasmid: robp | reporter plasmid: soxSp | reporter plasmid: tolCp
0.48 µg/ml, genetic background: wild type | 2.19 | 2.14 | 2.81 | 2.464 | 2.57 | 2.95 | 2.77 | 2.55
0.48 µg/ml, genetic background: ΔmarA | 1.88 | 2.86 | 2.511 | 2.31 | 2.45 | 2.55 | 2.16 | 1.848
0.48 µg/ml, genetic background: Δrob | 2.09 | 2.249 | 2.66 | 2.09 | 1.95 | 2.01 | 2.52 | 2.31
0.48 µg/ml, genetic background: ΔsoxS | 2.44 | 2.55 | 2.43 | 1.96 | 2.41 | 2.58 | 2.41 | 1.98
1 µg/ml, genetic background: wild type | 1.19 | 0.673 | 1.33 | 1.34 | 0.974 | 1.1 | 1.809 | 1.74
1 µg/ml, genetic background: ΔmarA | 0.773 | 0.782 | 0.43 | 1.03 | 0.397 | 0.833 | 1.31 | 0.728
1 µg/ml, genetic background: Δrob | 0.661 | 0.329 | 0.554 | 0.787 | 0.0986 | 0.164 | 1.67 | 1.24
1 µg/ml, genetic background: ΔsoxS | 1.05 | 0.401 | 0.605 | 0.307 | 0.188 | 0.159 | 0.53 | 1.01
